The whole screen tested about 580,000 compounds, of which about 6,100 (1.1%) were called active. The shares of active, inactive and inconclusive entries below differ from those in the screen. The call rests on the fitted dose curve; in most records, active means well fitted inhibition curve with a large enough effect; inconclusive means small, poorly fitted or top-dose-only effect, or another doubt; inactive means no such curve, though single readings can be large or run the other way. A potency beside an inconclusive call is a rough fit, not a confirmed value.
target: Polyunsaturated fatty acid lipoxygenase ALOX12 (Homo sapiens) (UniProt P18054); assay: Primary qHTS assay for inhibitors of human arachidonate 12S-lipoxygenase (ALOX12): Round 2; conditions: purified 12hLO, xylenol orange hydroperoxide absorbance; series mostly up to 108 µM
How it was run: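 Purified human 12hLO at 150 nM in 25 mM Hepes, 0.01% Triton X-100, pH 7.0, preincubated 15 min at room temperature with compound. Reaction started with 40 uM arachidonic acid, 30 min at room temperature. Hydroperoxide measured by Fe-xylenol orange, 573/405 nm absorbance ratio.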
Potency means the concentration at half of the fitted maximal effect.

By UniProt entry, the sequences of proteins in these tests, tags left out. Where a name states a change or a piece, a line headed by the entry shows the natural chain unless it says otherwise.
UniProt P18054: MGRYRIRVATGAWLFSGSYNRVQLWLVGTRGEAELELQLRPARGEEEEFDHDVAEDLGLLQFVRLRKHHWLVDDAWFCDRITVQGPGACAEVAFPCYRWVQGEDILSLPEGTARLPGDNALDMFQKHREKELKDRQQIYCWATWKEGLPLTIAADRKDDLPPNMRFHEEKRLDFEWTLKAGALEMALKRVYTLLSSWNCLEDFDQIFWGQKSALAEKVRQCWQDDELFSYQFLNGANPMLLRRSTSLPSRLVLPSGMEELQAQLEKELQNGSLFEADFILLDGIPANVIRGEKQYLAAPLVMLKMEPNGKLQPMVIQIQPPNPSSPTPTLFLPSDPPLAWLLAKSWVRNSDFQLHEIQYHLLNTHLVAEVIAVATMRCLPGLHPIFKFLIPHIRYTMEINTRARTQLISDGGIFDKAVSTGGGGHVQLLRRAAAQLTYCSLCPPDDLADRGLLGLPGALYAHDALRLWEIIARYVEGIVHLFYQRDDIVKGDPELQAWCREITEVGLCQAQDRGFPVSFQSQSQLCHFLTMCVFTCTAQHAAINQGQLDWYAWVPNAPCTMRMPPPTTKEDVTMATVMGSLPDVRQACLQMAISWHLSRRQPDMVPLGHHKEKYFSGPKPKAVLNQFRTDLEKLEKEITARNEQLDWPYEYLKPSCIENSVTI

| Structure (SMILES) | Potency |
| --- | --- |
| CN1CC2(CCCN(CC3CC3)C2)c2cc(C(=O)NCCc3ccccn3)ccc21 (configuration not stated) | inconclusive: 3.98 µM [inhibitor, full curve, poor fit] |
| Cc1ccc(S(=O)(=O)N(C)C[C@@H]2Oc3ncc(C#CCC(C)C)cc3C(=O)N([C@H](C)CO)C[C@H]2C)cc1 | inconclusive: 0.501 µM [inhibitor, full curve, poor fit] |
| COc1ccc(CNC(=O)CSc2cccc3cccnc23)cc1 | inactive |
| Cc1ccc2[nH]c(O)c(N=Nc3ccccc3C)c2c1 | inconclusive: 44.7 µM [inhibitor, partial curve, poor fit] |
| CCc1c(C)sc2nc3c(C(=O)N4CCOCC4)cc(C(=O)c4ccccc4O)cn3c(=O)c12 | inactive |
| Cc1ccc(/C=C2\CC(C)CC3=C2NC(=S)NC3c2ccc(C)cc2)cc1 (configuration not stated) | inconclusive: 44.7 µM [inhibitor, partial curve, poor fit] |
| CC(C)c1ccc(NC(=O)N2CCc3[nH]c4ccc(F)cc4c3C2)cc1 | inconclusive: 10 µM [inhibitor, full curve, poor fit] |
| C[C@@H]1CN([C@H](C)CO)C(=O)CCCn2cc(nn2)CO[C@H]1CN(C)S(C)(=O)=O | inconclusive: 39.8 µM [inhibitor, partial curve] |
| CC(=O)c1c(C(C)=O)c(C)n(NC(=O)c2ccc(Cl)cc2)c1C | inactive |
| NC(=O)c1cc([N+](=O)[O-])ccc1NCc1ccc(F)cc1 | inactive |
| CCn1c(CSc2nnc(-c3ccncc3)n2CCOC)nc2cc(C(=O)O)ccc21 | inconclusive: 50.1 µM [inhibitor, partial curve, poor fit] |
| Cc1nc2c(ccc3ccccc32)c(C)c1C | inconclusive: 44.7 µM [inhibitor, single point] |
| O=C(NC(=S)Nc1ccccc1Br)c1ccco1 | inconclusive: 44.7 µM [inhibitor, partial curve, poor fit] |
| CCOC(=O)c1ccc(N2CCN(CC)CC2)c(NC(=O)CSc2ccc(Cl)cc2)c1 | inconclusive: 35.5 µM [inhibitor, partial curve, poor fit] |
| COc1cc(C)c(C(=O)Oc2cc(C)c(C(=O)O)c(O)c2C)c(O)c1C(=O)O | inactive |
| CCOC(=O)C1=CN(Cc2cccc(F)c2)S(=O)(=O)NC1CCc1ccccc1 (configuration not stated) | inconclusive: 100 µM [inhibitor, single point] |
| COC(=O)[C@@]1(Cc2ccc(OC)cc2)[C@H]2c3cc(C(=O)N(C)C)n(C[C@H](O)CO)c3C[C@H]2CN1C(=O)c1ccccc1 | inconclusive: 79.4 µM [inhibitor, single point] |

Look-ups from the entries so far:
Entry of `CCc1c(C)sc2nc3c(C(=O)N4CCOCC4)cc(C(=O)c4ccccc4O)cn3c(=O)c12` under Potency: inactive
Entry of `CCOC(=O)C1=CN(Cc2cccc(F)c2)S(=O)(=O)NC1CCc1ccccc1` (configuration not stated) under Potency: inconclusive: 100 µM [inhibitor, single point]

Source: PubChem BioAssay AID1671190 (National Center for Advancing Translational Sciences (NCATS), 2021)
